Source: publication doi:10.1101/2021.09.14.460295
Results are given in words; binding and its absence hold for the method and conditions named. Binding seen in cells or lysates may run through a third protein.

The chains behind the UniProt entries cited, without tags or fusion partners. Residues count along the entry.
UniProt P11021, residues 19-654: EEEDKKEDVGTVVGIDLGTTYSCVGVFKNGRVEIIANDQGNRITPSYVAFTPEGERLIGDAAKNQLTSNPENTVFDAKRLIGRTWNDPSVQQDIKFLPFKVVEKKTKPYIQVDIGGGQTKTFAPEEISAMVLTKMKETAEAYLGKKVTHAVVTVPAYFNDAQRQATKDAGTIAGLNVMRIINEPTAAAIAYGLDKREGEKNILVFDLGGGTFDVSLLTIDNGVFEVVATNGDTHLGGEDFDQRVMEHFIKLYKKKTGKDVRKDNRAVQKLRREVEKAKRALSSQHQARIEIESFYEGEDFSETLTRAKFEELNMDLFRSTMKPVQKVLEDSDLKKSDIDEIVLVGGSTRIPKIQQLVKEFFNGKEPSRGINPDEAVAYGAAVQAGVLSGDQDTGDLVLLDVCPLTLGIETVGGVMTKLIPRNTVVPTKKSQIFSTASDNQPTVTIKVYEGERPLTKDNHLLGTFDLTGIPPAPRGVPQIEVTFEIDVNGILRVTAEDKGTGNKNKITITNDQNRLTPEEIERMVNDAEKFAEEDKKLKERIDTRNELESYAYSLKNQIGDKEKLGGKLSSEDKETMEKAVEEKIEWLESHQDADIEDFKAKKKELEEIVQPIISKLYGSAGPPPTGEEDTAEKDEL
UniProt P02545, residues 1-646: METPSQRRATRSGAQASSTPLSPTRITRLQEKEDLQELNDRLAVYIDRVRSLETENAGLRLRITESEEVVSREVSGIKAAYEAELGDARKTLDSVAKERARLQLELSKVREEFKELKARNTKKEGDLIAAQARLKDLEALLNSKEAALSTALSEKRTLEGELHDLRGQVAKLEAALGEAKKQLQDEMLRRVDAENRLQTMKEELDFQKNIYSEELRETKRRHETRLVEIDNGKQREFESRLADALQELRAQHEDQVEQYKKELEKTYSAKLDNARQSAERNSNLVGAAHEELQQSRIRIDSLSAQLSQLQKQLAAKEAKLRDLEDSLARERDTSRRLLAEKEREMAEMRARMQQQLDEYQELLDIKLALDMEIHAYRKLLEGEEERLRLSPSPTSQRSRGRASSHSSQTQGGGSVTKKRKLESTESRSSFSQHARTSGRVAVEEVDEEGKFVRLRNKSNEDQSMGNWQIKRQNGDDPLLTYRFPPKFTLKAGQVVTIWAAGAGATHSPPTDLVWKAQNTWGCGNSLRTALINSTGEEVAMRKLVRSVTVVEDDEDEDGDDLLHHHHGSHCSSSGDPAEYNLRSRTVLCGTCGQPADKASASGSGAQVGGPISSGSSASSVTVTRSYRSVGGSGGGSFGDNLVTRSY

Target: GRP78/BiP (78-kDa glucose-regulated protein) (human (endogenous in hTERT-immortalized dermal fibroblasts)) (UniProt P11021)
Experiment: co-IP

With GFP-lamin A (from UniProt P02545 1-646) the binding was “no binding”.
